In all, about 330,000 compounds went through this assay and about 7,700 (2.3%) were called active. The inconclusive results got no clear call from the source; some entries with a clear call stand among them for comparison. The call rests on the fitted dose curve; in most records, active means well fitted inhibition curve with a large enough effect; inconclusive means small, poorly fitted or top-dose-only effect, or effect the other way; inactive means flat fitted curve, though single readings scatter. Where the call is inconclusive, the potency comes from a doubtful curve fit.
Assay: qHTS screen for small molecules that inhibit ELG1-dependent DNA repair in human embryonic kidney (HEK293T) cells expressing luciferase-tagged ELG1; further: nearly all actives have a fitted effect of over 55% in size
Conditions: HEK293T ELG1-luciferase reporter, luminescence, 16 h, DNA damage induced by 5-fluorouridine; activity change, negative = inhibition: at 46.1 µM (top of the series)
Method in brief: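 Quantitative HTS, concentration-response format. 2,000 cells/well co-treated with 5-fluorouridine and compound, 16 hr in 5% CO2 at 37 °C; ONE-Glo luminescence read after 30 min.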
On the % scale 0 is the no-effect control and ±100 the full control effect; potency means the concentration at half of the fitted maximal effect.

SMILES | activity change, negative = inhibition | Potency
COc1ccccc1CN(C(=O)Cc1cccs1)C(C(=O)NC1CCCC1)c1ccncc1 (stereo unspecified) | inactive: -24.4% | 
CCCCn1c(-c2nn(C)c(C)c2Cl)n[nH]c1=S | inactive: -4.99% | 
Cc1ccc2cc(C)c3nnc(SCC(=O)Nc4nc5c(s4)CCCC5)n3c2c1 |  | inconclusive: 3.26 µM [inhibitor, partial curve, poor fit]
CC(=O)NCc1nnc2c3ccccc3c(-c3ccccc3)nn12 |  | inconclusive: 20.6 µM [activator, single point]
CCCCCCCn1c(=N)n(CC(=O)c2ccco2)c2ccccc21 |  | inconclusive: 18.4 µM [inhibitor, partial curve, poor fit]
Cc1ccc2cc(CN(CC3CCCO3)C(=O)c3cccs3)c(=O)[nH]c2c1 (stereo unspecified) | inactive: -2.68% | 
Cc1cc(C)nc(-n2ncc(C#N)c2N)n1 |  | inconclusive: 25.9 µM [activator, partial curve, poor fit]
CCc1noc(C)c1C(=O)N(C)CC(=O)Nc1cccc(OC)c1 | inactive: -2.15% | 
CCCCOc1ccc(Cn2c(=O)oc3ccccc32)cc1 | inactive: -0.882% | 
COc1cc(/C=N/Nc2ccc(Cl)c(C(=O)O)c2)ccc1OCC(=O)N1C(C)CCCC1C (stereo unspecified) |  | inconclusive: 29.1 µM [activator, single point]
CCCn1nc(C(=O)Nc2cc(C(=O)OC)ccc2C)c2ccccc2c1=O | inactive: -6.83% | 
Cc1nn(CCCC(=O)NCCc2ccc(Cl)cc2)c(=O)c2nn(-c3ccccc3)c(C)c12 |  | inconclusive: 29.1 µM [inhibitor, single point]
COc1ccc(NC(=O)c2ccc(CN3CCc4ccccc4C3)cc2)cc1OC |  | inconclusive: 16.4 µM [inhibitor, partial curve]
COc1ccc(S(=O)(=O)N2CCC(C(N)=O)(N3CCCCC3)CC2)cc1OC | inactive: -0.346% | 
COc1cc(NC(=O)c2csc3c2CCCC3)ncn1 |  | inconclusive: 4.11 µM [activator, partial curve]
O=C1CCC(C(=O)N2CCCC2)CN1Cc1cccc(C(F)(F)F)c1 (stereo unspecified) | inactive: -23% | 
Cc1ccc(S(=O)(=O)NCCC(=O)OCC(=O)Nc2cccc(Cl)c2)cc1 |  | inconclusive: 0.0164 µM [activator, full curve, poor fit]
CS/C(=N/S(=O)(=O)c1ccc(C)cc1)c1ccccc1 | inactive: -4.41% | 
CC1CN(C(=O)c2ccc(CNS(=O)(=O)c3cccc(Cl)c3)cc2)CC(C)O1 (stereo unspecified) |  | inconclusive: 18.3 µM [inhibitor, partial curve, poor fit]
Cc1cc(C)c(NC(=O)CNC(=O)c2ccc3ncsc3c2)c(C)c1 | inactive: -0.247% | 
CCN(CC)c1ccc(S(=O)(=O)N2CCOCC2)cc1NC(=O)Cn1nc(C)c([N+](=O)[O-])c1C | inactive: -5.36% | 
COc1ccccc1N1CCN(/N=C/c2ccc(O)cc2O)CC1 |  | inconclusive: 16.4 µM [activator, partial curve]
N#CCN1C(=O)C2CCCN2c2ccc(S(=O)(=O)N3CCOCC3)cc21 (stereo unspecified) | inactive: -1.2% | 

SMILES | activity change, negative = inhibition | Potency
CC1CN=C(c2cccn2Cc2ccc(F)cc2Cl)O1 (stereo unspecified) | inactive: 12.3% | 
CCCCC1C2C(=O)N(c3ccc(C)cc3)C(=O)C2ON1c1ccccc1 (stereo unspecified) |  | inconclusive: 18.3 µM [activator, partial curve]
CCOc1ccc(C2NC(=S)NC3=C2CCc2ccccc23)cc1 (stereo unspecified) |  | inconclusive: 6.51 µM [inhibitor, partial curve, poor fit]
COc1cc(NC(=O)CSc2ccc3c(c2)OCCO3)cc(OC)c1OC |  | inconclusive: 23.1 µM [inhibitor, single point]
COc1ccc(NC(=S)NCC2CCCO2)c(OC)c1 (stereo unspecified) | inactive: 12.6% | 
COc1cccc(NC(=O)COc2ccc(C)cc2)c1 |  | inconclusive: 23.1 µM [activator, partial curve]
C/C=C(\C)CN1CCN(c2cc(C)ccc2C)CC1 | inactive: 3.73% | 
COC(=O)c1c(NC(=O)c2ccco2)sc2c1CCN(C(C)=O)C2 |  | inconclusive: 16.4 µM [inhibitor, partial curve, poor fit]
CC1(C)CC(=O)C=C(c2ccc3ccccc3c2)C1 |  | inconclusive: 29.1 µM [activator, single point]
O=C(Cc1ccc(F)cc1)Nc1cccc(-c2cn3c(n2)SCC3)c1 |  | active: 16.4 µM
COCCOC(=O)/C(C#N)=C/c1cn(Cc2ccccc2)nc1-c1cccnc1 |  | inconclusive: 25.9 µM [inhibitor, partial curve, poor fit]
O=C(NCCc1c[nH]c2ccccc12)c1ccco1 |  | inconclusive: 20.6 µM [activator, single point]
CCOC(=O)N1CCN(C(=O)c2ccc3nc(SCc4ccc(F)cc4)n(C)c3c2)CC1 |  | active: 13 µM
O=C(Cc1cccs1)Nc1ccccc1F |  | inconclusive: 13 µM [activator, partial curve]
Cc1ccc2cc(CN(CCc3ccccc3)C(=S)NCCCN(C)C)c(=O)[nH]c2c1 |  | inconclusive: 29.1 µM [inhibitor, single point]
Cc1ccccc1NC(=S)N(Cc1ccccc1)Cc1cccs1 | inactive: -1.9% | 
O=C(CSc1nc(Nc2ccccc2)nc(N2CCOCC2)n1)N1CCc2ccccc21 |  | inconclusive: 23.1 µM [inhibitor, partial curve]
Cc1ccccc1Nc1nc(N)nc(COC(=O)c2ccc([N+](=O)[O-])o2)n1 | inactive: 22% | 
CCc1nc(-c2ccc(OC)c(OC)c2)cc2cc(OC)c(OC)cc12 |  | active: 25.9 µM
Cc1nc2ccc(NC(=O)c3ccc(Cl)c(S(=O)(=O)N(C)c4ccccc4)c3)cc2s1 |  | inconclusive: 18.4 µM [inhibitor, partial curve, poor fit]
CCCCNC(=O)C(C)N(CCN(C)C)C(=O)CCCCCN1C(=O)NC(c2ccc(Cl)cc2)C(C(=O)OCc2ccccc2)=C1C (stereo unspecified) |  | inconclusive: 29.1 µM [inhibitor, single point]
O=C(C[C@@H]1C/C=C\C[C@H](Cc2ccc(F)cc2)C(=O)OC[C@H]2CCCN2C1=O)NCCO | inactive: 6.69% | 
COc1ccc(CCNC(=O)C2CCN(S(=O)(=O)c3ccc(C)cc3)CC2)cc1OC |  | inconclusive: 29.1 µM [inhibitor, single point]

Nothing new here: entries from further up.
SMILES | activity change, negative = inhibition | Potency
O=C(Cc1ccc(F)cc1)Nc1cccc(-c2cn3c(n2)SCC3)c1 |  | active: 16.4 µM
COCCOC(=O)/C(C#N)=C/c1cn(Cc2ccccc2)nc1-c1cccnc1 |  | inconclusive: 25.9 µM [inhibitor, partial curve, poor fit]
O=C(NCCc1c[nH]c2ccccc12)c1ccco1 |  | inconclusive: 20.6 µM [activator, single point]
CCOC(=O)N1CCN(C(=O)c2ccc3nc(SCc4ccc(F)cc4)n(C)c3c2)CC1 |  | active: 13 µM
O=C(Cc1cccs1)Nc1ccccc1F |  | inconclusive: 13 µM [activator, partial curve]
Cc1ccc2cc(CN(CCc3ccccc3)C(=S)NCCCN(C)C)c(=O)[nH]c2c1 |  | inconclusive: 29.1 µM [inhibitor, single point]
Cc1ccccc1NC(=S)N(Cc1ccccc1)Cc1cccs1 | inactive: -1.9% | 
O=C(CSc1nc(Nc2ccccc2)nc(N2CCOCC2)n1)N1CCc2ccccc21 |  | inconclusive: 23.1 µM [inhibitor, partial curve]
Cc1ccccc1Nc1nc(N)nc(COC(=O)c2ccc([N+](=O)[O-])o2)n1 | inactive: 22% | 
CCc1nc(-c2ccc(OC)c(OC)c2)cc2cc(OC)c(OC)cc12 |  | active: 25.9 µM

Reference: PubChem BioAssay AID504467 (National Center for Advancing Translational Sciences (NCATS), 2011)
